Measurements taken from patent US11912793B2 (SICHUAN UNIVERSITY, priority 2022, dated 2024).
Plain letter strings leave the end groups untold.

Legend:
peptide synthesis [1] = settings: whole synthesis
peptide synthesis [2] = settings: whole synthesis; remark: listed apart in the source

| Sequence | final HPLC purity (peptide synthesis [1]) | final HPLC purity (peptide synthesis [2]) |
| --- | --- | --- |
| CKPLRLSKEEHPLK (The sequence is synthetized) | purity=96.15% | – |
| GPGGDKCRCVFHWVCCYVS (GPGGDKCRCVFHWCCYVS; The sequence is synthetized) | – | purity=96.59% |
